The nature of the test: qHTS Assay for Lipid Storage Modulators in Drosophila S3 Cells.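 On cell number change: cells counted by Cell Tracker Red CMTPX staining in the red channel.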 Conditions: BODIPY lipid droplet fluorescence, 18-24 h; for cell number change: measured here: cell count max response, cells fed with added oleic acid. The procedure, abridged: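 Drosophila S3 cells loaded with oleic acid (400 uM, as added) and compounds at several concentrations; lipid droplets imaged by 488-nm laser-scanning cytometry, 500–530 nm intensity and object ratio to cell channel. Percent activity normalized to 20 uM Triacsin C.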

The mark [1] stands for this setting: measured here: cell number channel AC50, cells fed with added oleic acid.
Where [2] appears, read: measured here: lipid fluorescence (Fed channel) AC50, cells fed with added oleic acid.

In PubChem BioAssay AID2685 (National Center for Advancing Translational Sciences (NCATS), 2010) one finds cell number change and AC50 data, which are given here for 36 molecules.

The list shows a part of the results. Shown are side measurements of this screen, not its main read-out; they come without a call. The list favours compounds with an active or inconclusive main result. Words in brackets tell the shape of the fitted curve; partial curves, single points and poor fits give uncertain potencies.

`COc1ccccc1OCc1cc(C(=O)N2CCN(C)C(c3ccccc3)C2)no1` (configuration not stated): the cell number change came out at 41.1%. Moreover, the AC50 (in general, the midpoint of the concentration-response curve, whichever way the signal moves) under setting [1] is 11.6 µM [rising, partial curve, poor fit].
With `COc1ccc(CSc2nnc(C)n2N)cc1Br`, the cell number change was -2.4%. Further, under setting [2], the AC50 was 3.26 µM [rising, single point].
As to `O=C(CNC(=O)Cc1ccccc1)N=Nc1c(O)[nH]c2ccc(Br)cc12`, the cell number change was -89.7%. The AC50 under setting [1] is 29.1 µM [falling, single point].
For `NC(=O)CCn1c(C(=O)c2cccc([N+](=O)[O-])c2)c2ccccc2[n+]1[O-]`, the cell number change was found to be 16.8%.
With `Cc1ccccc1NC(=O)/C(C#N)=C\c1ccsc1`, the cell number change is -0.879%. The AC50 under setting [2] is 16.4 µM [falling, partial curve, poor fit].
Consider `Cc1nc(N2CCN(C(=O)c3cnccn3)CC2)c2c3c(sc2n1)CC(C(C)(C)C)CC3` (configuration not stated), for which the cell number change turned out to be 14.5%. In addition, under setting [2], the AC50 is 5.62 µM [rising, single point].
Regarding `Cc1ccc2c(c1)C(c1ccccc1)N(C(=O)c1ccc(S(=O)(=O)N3CCOCC3)cc1)CC(=O)N2` (configuration not stated), the cell number change was -5.25%. Moreover, the AC50 under setting [2] was 6.51 µM [rising, single point].
In the case of `CCCc1cc(Nc2ccc(C)cc2)n2ncnc2n1`, the cell number change turned out to be 1.65%. Besides, under setting [2], the AC50 was 4.11 µM [falling, full curve].
For the molecule `O=C(OCCN1CCOCC1)c1cccs1`, the cell number change is -14.6%. The AC50 under setting [2] was 0.00517 µM [falling, full curve, poor fit].
For the molecule `O=C(COc1ccc2ccccc2c1)N1CCN(c2ccccc2)CC1`, the cell number change amounted to 3.62%. In addition, the AC50 under setting [2] was 29.1 µM [falling, single point].
Turning to `CN(C)CC(C)(C)CNS(=O)(=O)c1ccc(Cl)s1`, the cell number change was -35.3%. Further, under setting [2], the AC50 is 4.61 µM [falling, full curve].
Regarding `CC(C)C(NC(=O)c1ccc(Cl)cc1)C(=O)NC1=NCCS1` (configuration not stated), the cell number change came to 34%. The AC50 under setting [1] was 29.1 µM [rising, single point]. Under setting [2], the AC50 is 0.0058 µM [rising, full curve, poor fit].
For the molecule `CCN(CC)CCNC(=O)c1cc(S(=O)(=O)N2CCc3ccccc32)cn1C`, the cell number change was determined as 7.49%. Also, under setting [2], the AC50 is 2.06 µM [rising, partial curve].
As to `COCCNC(=S)Nc1ccc([N+](=O)[O-])cc1C`, the cell number change worked out at 36%.
Regarding `Cc1ccc(C(=O)CSc2nnc(-c3ccco3)n2Cc2ccccc2)cc1`, the cell number change worked out at 1.18%. For the same molecule, the AC50 under setting [2] is 1.16 µM [falling, single point].
With `O=C(CN1C(=O)C2CC=CCC2C1=O)Nc1nnc(SCc2c(Cl)cccc2Cl)s1` (configuration not stated), the cell number change stood at 54.2%. Further, the concentration at half-maximal activity (AC50) under setting [1] is 0.651 µM [rising, full curve].
For `COc1ccc(-c2nc(NCCCN(C)C)c3ccccc3n2)cc1`, the cell number change was -16.1%.
For `Cc1cccc(N(CC(=O)N2CCCCCC2)S(C)(=O)=O)c1`, the cell number change is -5.82%. Moreover, the AC50 under setting [2] was 14.6 µM [falling, single point].
Consider `C/C(=N\NC(=O)c1cccc(S(=O)(=O)Nc2ccccc2Cl)c1)c1ccc(-n2ccnc2)cc1`, for which the cell number change was found to be 26.9%. Besides, the AC50 under setting [2] is 0.092 µM [rising, full curve, poor fit].
On to `CSc1nc2cc(Oc3cccc(Cl)c3Cl)c(Cl)cc2[nH]1`, for which the cell number change was -55.8%. For the same molecule, the AC50 under setting [1] is 16.4 µM [falling, single point]. Further, the concentration at half-maximal activity (AC50) under setting [2] was 16.4 µM [falling, single point].
For the molecule `CCN1C(=O)CC(N2CCOCC2)C1=O` (configuration not stated), the cell number change is -101%. For the same molecule, the AC50 under setting [1] was 25.9 µM [falling, partial curve]. Also, under setting [2], the half-maximal activity concentration (AC50) is 29.1 µM [falling, single point].
As to `Cc1ccc(NC(=O)CSc2ccc(S(=O)(=O)N3CCCC3)cn2)cc1F`, the cell number change amounted to 44.7%. Besides, the AC50 under setting [1] is 29.1 µM [rising, single point]. In addition, the AC50 under setting [2] was 4.11 µM [falling, single point].
`CC(=O)Nc1cccc(NC(=O)CCn2cnc3cc(C)c(C)cc32)c1`: the cell number change was 33.9%. Moreover, the AC50 under setting [1] is 0.00461 µM [rising, full curve, poor fit]. In addition, under setting [2], the AC50 was 1.3 µM [rising, full curve, poor fit].
As to `CCOC(=O)c1ccc(NC(=S)NCCc2ccc(F)cc2)cc1`, the cell number change is -15%. Moreover, the AC50 under setting [2] was 16.4 µM [falling, single point].
`CCOC(=O)Cc1csc(NC(=O)CCCCCN2C(=O)c3ccccc3C2=O)n1`: the cell number change was -40.4%. Under setting [1], the AC50 is 29.1 µM [falling, single point].
`COc1ccccc1C(C#N)c1cccc(Cl)n1` (configuration not stated): the cell number change is 13.8%. Further, under setting [1], the AC50 is 5.8 µM [rising, single point]. The concentration at half-maximal activity (AC50) under setting [2] is 6.51 µM [rising, single point].
For `CS(=O)(=O)N1CCN(C(=S)NCc2ccc(Cl)cc2)CC1`, the cell number change stood at 12.1%. Further, the AC50 under setting [1] is 3.26 µM [falling, single point].
For the molecule `CC(CC(=O)N1CCN(c2ccccc2)CC1)S(=O)(=O)c1ccc2c(c1)NC(=O)CO2` (configuration not stated), the cell number change was -41.6%. Also, under setting [1], the AC50 was 32.6 µM [falling, single point].
Consider `COC(=O)C[N+](C)(C)C/C=C\c1ccccc1`, for which the cell number change amounted to 4.19%. The AC50 under setting [2] is 0.259 µM [falling, full curve, poor fit].
Turning to `CCO[C@H]1OC(C(=O)NC2CC2)=C[C@@H](c2coc3ccccc3c2=O)[C@@H]1CCCO`, the cell number change was -0.23%. Also, under setting [2], the AC50 is 0.731 µM [falling, single point].
Consider `c1ccc(-c2nn3c(Cn4cnc5ccccc54)nnc3s2)cc1`, for which the AC50 was 2.31 µM [rising, partial curve] under setting [1] and 0.731 µM [rising, single point] under setting [2].
Regarding `COc1ccc(/C=N\NC(=O)c2ccccc2Br)cc1COc1ccccc1`, the cell number change is -8.65%. Under setting [2], the AC50 is 29.1 µM [falling, single point].
As to `Cc1cc(C)c2nc(N3C(=O)C(O)=C(C(=O)c4ccco4)C3c3cccc(O)c3)sc2c1` (configuration not stated), the cell number change was -33.3%. For the same molecule, the AC50 under setting [1] was 32.6 µM [falling, single point]. Further, under setting [2], the concentration at half-maximal activity (AC50) was 29.1 µM [falling, single point].
Regarding `CCCCP(=O)(CCCC)c1ccccc1C(=O)O`, the cell number change is 7.86%. Under setting [2], the AC50 was 0.651 µM [rising, full curve, poor fit].
Consider `Cn1nnnc1Sc1ncnc2scc(-c3ccc([N+](=O)[O-])cc3)c12`, for which the cell number change was -36.6%. In addition, under setting [1], the AC50 was 8.2 µM [falling, partial curve]. For the same molecule, the AC50 under setting [2] is 0.58 µM [falling, partial curve, poor fit].
As to `COc1ccc(-c2cc(C(=O)NCCCn3ccnc3)no2)cc1OC`, the cell number change came out at 5.73%. For the same molecule, under setting [1], the AC50 was 0.82 µM [rising, partial curve].
